Some of the results follow.
Assays:
Assay in all cases: log2 fold change, soluble protein after heating vs DMSO (PISA); higher = thermal stabilisation; K562 cells, 10 uM, 30 min; active = over 0.2 and 3.5 SD of the protein, either way, in both replicates (recomputed)
[1] = compound: CS(=O)(=O)c1ccc(-c2cnc(N)c(C(=O)Nc3ccccc3)n2)cc1
Outline: (§1)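 K562 cells at 2×10^6 cells/mL were exposed to 10 μM compound for 30 min, then aliquots were heated for 3 min across 48°C-58°C, pooled, and extracted in PBS containing 0.5% NP-40 at 4°C. The supernatant after 21,000xg for 90 min was taken as soluble protein and measured by TMTpro 16plex LC-MS/MS with channel sums equalised. Thermal stability is reported relative to control samples, with values from duplicates. Fold changes are given on a log2 scale.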

The chains behind the UniProt entries cited, without tags or fusion partners. Where a name states a change or a piece, a line headed by the entry shows the natural chain unless it says otherwise.
UniProt Q9BZH6: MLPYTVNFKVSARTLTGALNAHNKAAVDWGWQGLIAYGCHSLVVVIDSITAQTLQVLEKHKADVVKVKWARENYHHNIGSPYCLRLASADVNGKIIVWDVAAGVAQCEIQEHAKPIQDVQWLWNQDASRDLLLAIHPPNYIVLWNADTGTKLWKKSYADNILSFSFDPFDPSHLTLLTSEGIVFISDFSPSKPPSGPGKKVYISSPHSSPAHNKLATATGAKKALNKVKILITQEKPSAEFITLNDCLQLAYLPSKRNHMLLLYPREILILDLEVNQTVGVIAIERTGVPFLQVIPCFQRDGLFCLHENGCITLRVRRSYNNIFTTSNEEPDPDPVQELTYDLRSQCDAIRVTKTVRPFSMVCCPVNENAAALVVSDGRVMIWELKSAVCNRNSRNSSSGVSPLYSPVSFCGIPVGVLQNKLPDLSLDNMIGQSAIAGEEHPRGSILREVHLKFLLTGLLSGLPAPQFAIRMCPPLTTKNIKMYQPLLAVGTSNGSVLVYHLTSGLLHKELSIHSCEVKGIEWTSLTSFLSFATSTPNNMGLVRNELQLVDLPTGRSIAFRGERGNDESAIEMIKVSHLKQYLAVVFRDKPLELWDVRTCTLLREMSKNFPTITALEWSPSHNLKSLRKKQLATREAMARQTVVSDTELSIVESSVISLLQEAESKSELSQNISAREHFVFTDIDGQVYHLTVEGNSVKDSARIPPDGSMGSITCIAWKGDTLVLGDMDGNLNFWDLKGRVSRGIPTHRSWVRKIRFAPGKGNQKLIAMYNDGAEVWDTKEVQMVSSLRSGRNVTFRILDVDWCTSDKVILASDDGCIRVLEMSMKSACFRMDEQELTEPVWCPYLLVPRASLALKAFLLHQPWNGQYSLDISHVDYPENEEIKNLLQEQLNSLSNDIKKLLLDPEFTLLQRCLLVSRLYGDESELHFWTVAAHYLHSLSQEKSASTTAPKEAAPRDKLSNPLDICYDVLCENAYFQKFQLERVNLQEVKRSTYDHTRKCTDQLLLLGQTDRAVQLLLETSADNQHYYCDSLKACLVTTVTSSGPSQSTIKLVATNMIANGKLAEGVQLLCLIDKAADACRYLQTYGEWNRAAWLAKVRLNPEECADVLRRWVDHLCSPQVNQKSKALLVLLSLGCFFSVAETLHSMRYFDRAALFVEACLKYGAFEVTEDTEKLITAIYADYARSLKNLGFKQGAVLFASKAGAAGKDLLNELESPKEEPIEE
UniProt Q15906, whole entry, looked up: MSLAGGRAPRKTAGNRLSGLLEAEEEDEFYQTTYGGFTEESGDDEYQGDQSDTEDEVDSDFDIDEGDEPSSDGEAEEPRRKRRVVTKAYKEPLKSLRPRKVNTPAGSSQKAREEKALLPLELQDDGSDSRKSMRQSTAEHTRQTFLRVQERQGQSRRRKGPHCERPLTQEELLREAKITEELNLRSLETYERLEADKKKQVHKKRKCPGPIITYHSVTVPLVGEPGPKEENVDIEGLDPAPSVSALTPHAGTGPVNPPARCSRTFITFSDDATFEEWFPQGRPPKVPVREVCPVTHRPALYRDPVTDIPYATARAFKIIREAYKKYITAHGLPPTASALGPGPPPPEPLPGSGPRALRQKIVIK
UniProt Q9NP79: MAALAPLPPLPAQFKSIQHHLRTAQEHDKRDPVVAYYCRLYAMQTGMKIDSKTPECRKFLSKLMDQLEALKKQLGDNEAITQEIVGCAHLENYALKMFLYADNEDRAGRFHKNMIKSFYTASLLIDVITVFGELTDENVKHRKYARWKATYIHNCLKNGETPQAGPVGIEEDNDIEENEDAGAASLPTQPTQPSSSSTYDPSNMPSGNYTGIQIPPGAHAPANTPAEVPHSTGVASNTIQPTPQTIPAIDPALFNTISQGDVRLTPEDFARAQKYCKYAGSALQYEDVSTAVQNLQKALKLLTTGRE
UniProt O75554: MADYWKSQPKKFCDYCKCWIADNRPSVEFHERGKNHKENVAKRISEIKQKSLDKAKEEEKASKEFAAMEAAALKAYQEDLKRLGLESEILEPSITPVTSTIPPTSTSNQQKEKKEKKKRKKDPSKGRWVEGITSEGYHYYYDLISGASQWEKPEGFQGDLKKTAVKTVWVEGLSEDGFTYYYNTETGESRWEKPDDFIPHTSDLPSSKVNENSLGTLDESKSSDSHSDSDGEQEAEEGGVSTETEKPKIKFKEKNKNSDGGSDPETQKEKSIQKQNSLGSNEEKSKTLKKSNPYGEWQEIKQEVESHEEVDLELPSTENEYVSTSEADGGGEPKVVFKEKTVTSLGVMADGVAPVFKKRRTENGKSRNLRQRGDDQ
UniProt Q96S15: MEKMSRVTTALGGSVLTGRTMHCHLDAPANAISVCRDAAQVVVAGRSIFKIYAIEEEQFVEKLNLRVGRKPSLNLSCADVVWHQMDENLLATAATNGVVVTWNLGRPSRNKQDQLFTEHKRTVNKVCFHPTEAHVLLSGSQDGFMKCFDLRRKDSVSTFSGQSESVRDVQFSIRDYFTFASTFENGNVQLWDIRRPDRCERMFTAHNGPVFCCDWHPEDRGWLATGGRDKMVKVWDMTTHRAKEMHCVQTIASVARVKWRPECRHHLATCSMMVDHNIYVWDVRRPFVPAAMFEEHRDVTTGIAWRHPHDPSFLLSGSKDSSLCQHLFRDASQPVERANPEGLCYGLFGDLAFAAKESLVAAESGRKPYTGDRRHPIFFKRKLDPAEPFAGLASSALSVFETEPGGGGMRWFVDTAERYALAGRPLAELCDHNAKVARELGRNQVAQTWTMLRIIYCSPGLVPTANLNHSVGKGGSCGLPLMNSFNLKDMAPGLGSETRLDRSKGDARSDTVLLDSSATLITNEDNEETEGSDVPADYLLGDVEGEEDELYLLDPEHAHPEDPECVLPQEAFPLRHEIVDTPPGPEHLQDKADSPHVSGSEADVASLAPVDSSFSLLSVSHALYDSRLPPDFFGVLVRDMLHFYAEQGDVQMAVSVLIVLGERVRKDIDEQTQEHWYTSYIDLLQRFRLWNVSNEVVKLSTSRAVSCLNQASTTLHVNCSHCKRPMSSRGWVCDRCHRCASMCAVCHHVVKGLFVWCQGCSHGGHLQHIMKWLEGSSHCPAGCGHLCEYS
UniProt Q9C0J8: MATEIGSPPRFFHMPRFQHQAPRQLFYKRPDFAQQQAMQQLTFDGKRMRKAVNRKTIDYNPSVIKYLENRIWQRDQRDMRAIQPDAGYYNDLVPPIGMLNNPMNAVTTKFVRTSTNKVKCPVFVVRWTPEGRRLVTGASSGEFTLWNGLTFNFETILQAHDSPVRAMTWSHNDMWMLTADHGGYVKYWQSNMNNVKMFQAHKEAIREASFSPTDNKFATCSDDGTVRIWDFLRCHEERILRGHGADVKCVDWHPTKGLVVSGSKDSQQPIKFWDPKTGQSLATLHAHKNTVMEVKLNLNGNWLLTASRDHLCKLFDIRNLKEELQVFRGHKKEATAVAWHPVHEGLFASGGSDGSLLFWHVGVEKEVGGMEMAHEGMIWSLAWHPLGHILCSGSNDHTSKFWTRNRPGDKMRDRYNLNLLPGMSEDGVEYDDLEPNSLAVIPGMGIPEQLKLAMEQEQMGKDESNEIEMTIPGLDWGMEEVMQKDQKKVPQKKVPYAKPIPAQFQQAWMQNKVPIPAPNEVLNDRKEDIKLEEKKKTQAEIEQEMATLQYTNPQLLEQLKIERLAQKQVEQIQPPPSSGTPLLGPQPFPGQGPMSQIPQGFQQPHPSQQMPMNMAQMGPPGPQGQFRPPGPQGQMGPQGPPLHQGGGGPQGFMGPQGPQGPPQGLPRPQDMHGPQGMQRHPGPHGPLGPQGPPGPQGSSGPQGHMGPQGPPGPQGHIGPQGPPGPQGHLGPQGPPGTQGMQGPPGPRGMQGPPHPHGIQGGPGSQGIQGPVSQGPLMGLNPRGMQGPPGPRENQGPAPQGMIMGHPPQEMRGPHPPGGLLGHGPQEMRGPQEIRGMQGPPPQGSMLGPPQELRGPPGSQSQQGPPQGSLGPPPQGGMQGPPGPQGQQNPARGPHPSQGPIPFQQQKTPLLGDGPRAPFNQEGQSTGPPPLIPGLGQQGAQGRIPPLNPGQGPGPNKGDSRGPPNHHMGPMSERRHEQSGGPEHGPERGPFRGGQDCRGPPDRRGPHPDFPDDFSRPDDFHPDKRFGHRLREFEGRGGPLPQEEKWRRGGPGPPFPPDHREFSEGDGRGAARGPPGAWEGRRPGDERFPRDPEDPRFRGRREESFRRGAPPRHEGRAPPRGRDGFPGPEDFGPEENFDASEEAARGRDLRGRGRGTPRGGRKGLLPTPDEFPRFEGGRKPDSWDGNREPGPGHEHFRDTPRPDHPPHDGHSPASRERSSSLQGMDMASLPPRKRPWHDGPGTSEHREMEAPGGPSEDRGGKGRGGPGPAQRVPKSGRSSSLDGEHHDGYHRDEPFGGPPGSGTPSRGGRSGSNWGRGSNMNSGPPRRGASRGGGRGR
UniProt P40337, whole entry, looked up: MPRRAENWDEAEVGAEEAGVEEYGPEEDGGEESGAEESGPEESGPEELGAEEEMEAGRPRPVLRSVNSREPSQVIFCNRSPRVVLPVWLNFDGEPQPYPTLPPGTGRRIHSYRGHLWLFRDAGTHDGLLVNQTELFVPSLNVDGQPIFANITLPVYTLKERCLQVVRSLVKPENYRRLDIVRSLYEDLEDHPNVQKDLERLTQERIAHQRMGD
UniProt Q8N3P4: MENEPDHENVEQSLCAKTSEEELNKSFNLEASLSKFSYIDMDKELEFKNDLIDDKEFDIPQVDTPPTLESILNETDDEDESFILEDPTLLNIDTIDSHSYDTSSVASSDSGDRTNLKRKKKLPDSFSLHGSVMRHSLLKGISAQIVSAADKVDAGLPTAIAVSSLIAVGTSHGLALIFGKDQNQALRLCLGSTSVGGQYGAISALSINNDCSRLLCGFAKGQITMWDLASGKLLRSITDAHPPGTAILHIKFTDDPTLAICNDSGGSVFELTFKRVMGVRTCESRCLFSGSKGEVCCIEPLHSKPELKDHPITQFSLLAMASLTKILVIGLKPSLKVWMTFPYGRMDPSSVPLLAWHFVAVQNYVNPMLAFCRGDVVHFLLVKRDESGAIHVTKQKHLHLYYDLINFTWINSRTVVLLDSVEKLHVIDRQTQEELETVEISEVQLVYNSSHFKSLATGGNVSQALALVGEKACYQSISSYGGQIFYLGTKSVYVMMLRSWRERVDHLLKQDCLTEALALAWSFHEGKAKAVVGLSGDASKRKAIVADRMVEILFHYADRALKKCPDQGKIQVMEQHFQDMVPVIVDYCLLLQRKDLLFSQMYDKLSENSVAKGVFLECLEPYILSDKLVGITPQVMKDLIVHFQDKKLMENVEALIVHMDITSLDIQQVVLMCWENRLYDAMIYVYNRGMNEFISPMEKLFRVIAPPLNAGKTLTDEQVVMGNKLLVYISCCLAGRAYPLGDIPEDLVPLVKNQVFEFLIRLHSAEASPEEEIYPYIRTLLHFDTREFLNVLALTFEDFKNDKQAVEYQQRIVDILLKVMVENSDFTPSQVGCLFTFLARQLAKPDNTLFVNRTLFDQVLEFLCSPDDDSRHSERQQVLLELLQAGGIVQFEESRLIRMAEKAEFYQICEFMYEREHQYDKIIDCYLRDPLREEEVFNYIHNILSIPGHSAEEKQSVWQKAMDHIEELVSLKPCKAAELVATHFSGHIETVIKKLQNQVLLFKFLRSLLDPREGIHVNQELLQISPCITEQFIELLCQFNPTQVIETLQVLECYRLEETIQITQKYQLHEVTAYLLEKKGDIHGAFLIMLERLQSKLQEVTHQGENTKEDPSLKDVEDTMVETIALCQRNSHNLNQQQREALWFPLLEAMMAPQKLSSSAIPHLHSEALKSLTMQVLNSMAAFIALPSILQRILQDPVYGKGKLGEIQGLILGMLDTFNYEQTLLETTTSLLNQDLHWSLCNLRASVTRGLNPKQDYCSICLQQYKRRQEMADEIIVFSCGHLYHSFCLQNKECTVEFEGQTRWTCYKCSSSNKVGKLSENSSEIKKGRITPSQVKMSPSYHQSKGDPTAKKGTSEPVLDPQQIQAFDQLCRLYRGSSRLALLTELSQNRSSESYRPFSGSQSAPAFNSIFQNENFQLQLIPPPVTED
UniProt Q9HAD4: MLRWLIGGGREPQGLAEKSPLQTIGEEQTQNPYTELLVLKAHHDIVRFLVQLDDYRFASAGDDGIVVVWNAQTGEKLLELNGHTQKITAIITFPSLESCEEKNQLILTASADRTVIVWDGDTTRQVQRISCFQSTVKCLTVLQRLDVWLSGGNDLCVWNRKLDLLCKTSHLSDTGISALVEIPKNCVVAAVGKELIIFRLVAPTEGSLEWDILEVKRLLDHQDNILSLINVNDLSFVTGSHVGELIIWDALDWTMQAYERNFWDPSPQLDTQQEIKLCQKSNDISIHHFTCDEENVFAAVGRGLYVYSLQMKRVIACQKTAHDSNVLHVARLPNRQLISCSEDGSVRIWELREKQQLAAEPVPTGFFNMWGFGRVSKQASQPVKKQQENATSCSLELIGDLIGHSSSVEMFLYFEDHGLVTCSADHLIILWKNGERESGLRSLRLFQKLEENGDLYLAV

[2] = compound: C[C@@H](Oc1cc(-c2cnn(C3CCNCC3)c2)cnc1N)c1c(Cl)ccc(F)c1Cl [crizotinib]
Outline: as §1

[3] = compound: C[C@@H]1COCCN1C2=NC(=NC(=C2)C3(CC3)S(=O)(=O)C)C4=C5C=CNC5=CC=C4
Outline: as §1

[4] = compound: C[C@H](C1=CC=C(C=C1)C(=O)NC2=C3C=CNC3=NC=C2)N
Outline: as §1

[5] = compound: Cc1cc(Nc2cc(CN3CCOCC3)c3nc(C)c(Cc4ccc(Cl)cc4F)n3n2)n[nH]1 [gandotinib]
Outline: as §1

[6] = compound: Cc1cc(SCc2sc(-c3ccc(C(F)(F)F)cc3)nc2C)ccc1OCC(=O)O
Outline: as §1

[7] = compound: Cc1ccc(-n2nc(C(C)(C)C)cc2NC(=O)Nc2ccc(OCCN3CCOCC3)c3ccccc23)cc1 [doramapimod]
Outline: as §1

[8] = compound: Cc1ccc(C(=O)N(CCCN)[C@@H](c2nc3cc(Cl)ccc3c(=O)n2Cc2ccccc2)C(C)C)cc1 [ispinesib]
Outline: as §1

[9] = compound: Cc1ccc(NC(=O)c2ccc(CN3CC[C@H](N(C)C)C3)c(C(F)(F)F)c2)cc1Nc1nccc(-c2cncnc2)n1 [bafetinib]
Outline: as §1

[10] = compound: Cc1cccc(CC(=O)N2CCc3c2ccc(-c2cn(C)c4ncnc(N)c24)c3F)n1
Outline: as §1

[11] = compound: Cc1cn(-c2cc(NC(=O)c3ccc(C)c(Nc4nccc(-c5cccnc5)n4)c3)cc(C(F)(F)F)c2)cn1 [nilotinib]
Outline: as §1

[12] = compound: Cc1nc(Nc2n[nH]c3c2CN(C(=O)N[C@H](CN(C)C)c2ccccc2)C3(C)C)c2sccc2n1
Outline: as §1

[13] = compound: Cc1nc(Nc2ncc(C(=O)Nc3c(C)cccc3Cl)s2)cc(N2CCN(CCO)CC2)n1 [dasatinib]
Outline: as §1

[14] = compound: Cc1ncc(-c2ccnc(Nc3ccc(S(C)(=O)=O)cc3)n2)n1C(C)C
Outline: as §1

[15] = compound: Cn1cc(-c2ccc3c(c2)CCN3C(=O)Cc2cccc(C(F)(F)F)c2)c2c(N)ncnc21
Outline: as §1

[16] = compound: Cn1cc(-c2ccc3nnc(C(F)(F)c4ccc5ncccc5c4)n3n2)cn1
Outline: as §1

[17] = compound: Cn1cncc1[C@@](N)(c1ccc(Cl)cc1)c1ccc2c(c1)c(-c1cccc(Cl)c1)cc(=O)n2C [tipifarnib]
Outline: as §1

[18] = compound: FC(F)(F)c1ccc(/C=C/c2nc(COc3ccc(CCCCn4ccnn4)cc3)co2)cc1 [mubritinib]
Outline: as §1

[19] = compound: C[C@H](Nc1ncnc2nc[nH]c12)c1cc2cccc(Cl)c2c(=O)n1-c1ccccc1 [duvelisib]
Outline: as §1

[20] = compound: Cc1cc(Nc2cc(N3CCN(C)CC3)nc(Sc3ccc(NC(=O)C4CC4)cc3)n2)n[nH]1 [tozasertib]
Outline: as §1

Measured: log2 fold change

WDR11 (UniProt Q9BZH6)
inactive: [1] -0.064 | [2] -0.007 | [3] 0.111 | [4] 0.059 | [5] -0.291 | [6] -0.051 | [7] 0.056 | [8] -0.133 | [9] 0.063 | [10] -0.067 | [11] -0.229 | [12] 0.051 | [13] 0.056 | [14] -0.121 | [15] -0.018 | [16] 0.046 | [17] 0.038 | [18] 0.051

VSIR (UniProt Q9H7M9)
inactive: [1] 0.037 | [2] 0.135 | [3] 0.034 | [4] 0.008 | [5] -0.13 | [7] 0.035 | [8] -0.094 | [9] 0.009 | [10] -0.033 | [11] 0.024 | [12] -0.021 | [14] -0.021 | [15] 0.103 | [16] 0.042 | [18] 0.016

WARS1 (UniProt G3V277)
inactive: [1] -0.009 | [2] -0.001 | [5] -0.218 | [7] 0.029 | [9] -0.008 | [10] -0.116 | [11] -0.065 | [12] 0.039 | [14] -0.034 | [18] 0

VPS37B (UniProt Q9H9H4)
inactive: [1] 0.095 | [2] -0.019 | [3] 0.147 | [19] 0.072 | [5] -0.153 | [20] 0.028 | [6] 0.011 | [7] -0.038 | [8] -0.036 | [9] -0.036 | [10] 0.055 | [11] -0.078 | [12] -0.074 | [13] -0.034 | [14] 0.007 | [16] -0.005 | [17] -0.131 | [18] 0.032

VPS72 isoform 2 (UniProt Q15906)
inactive: [1] -0.041 | [3] 0.093 | [4] 0.196 | [6] -0.021 | [8] 0.218 | [9] -0.064 | [11] 0.086 | [12] 0.02 | [13] 0.044 | [14] -0.024 | [15] -0.052 | [16] 0.08 | [17] 0.074 | [18] 0.009

VTA1 (UniProt Q9NP79)
inactive: [1] 0.032 | [2] -0.049 | [3] 0.056 | [4] -0.019 | [5] -0.127 | [6] 0.057 | [7] -0.021 | [8] -0.014 | [9] -0.035 | [10] 0.081 | [11] -0.07 | [12] -0.011 | [13] -0.109 | [14] -0.005 | [15] 0.035 | [16] 0 | [17] -0.109 | [18] 0.033

VDAC1 (UniProt C9JI87)
inactive: [1] 0.017 | [3] -0.195 | [4] 0.275 | [6] -0.281 | [9] -0.152 | [11] -0.009 | [12] -0.048 | [13] 0.277 | [14] -0.106 | [15] -0.16 | [16] 0.22 | [17] 0.242 | [18] 0.133
active: [8] -0.743

VGLL4 isoform 4 (UniProt Q14135)
inactive: [1] 0.093 | [2] -0.128 | [3] 0.028 | [5] -0.226 | [20] 0.115 | [7] -0.029 | [8] -0.022 | [9] 0.014 | [10] -0.069 | [11] 0.08 | [12] -0.022 | [14] 0.04 | [16] 0.016 | [17] -0.01 | [18] -0.057

WDR46, A0A0G2JJL1
inactive: [1] -0.119 | [2] 0.086 | [3] -0.581 | [6] -0.125 | [7] 0.236 | [9] 0.339 | [11] -0.094 | [12] 0.202 | [13] 0.381 | [14] 0.105 | [17] 0.171 | [18] -0.051

Quoted at random: 2 records from the list.
WDR46, A0A0G2JJL1
inactive: [1] -0.119 | [2] 0.086 | [3] -0.581 | [6] -0.125 | [7] 0.236 | [9] 0.339 | [11] -0.094 | [12] 0.202 | [13] 0.381 | [14] 0.105 | [17] 0.171 | [18] -0.051

VDAC1 (UniProt C9JI87)
inactive: [1] 0.017 | [3] -0.195 | [4] 0.275 | [6] -0.281 | [9] -0.152 | [11] -0.009 | [12] -0.048 | [13] 0.277 | [14] -0.106 | [15] -0.16 | [16] 0.22 | [17] 0.242 | [18] 0.133
active: [8] -0.743

Further records

WBP4 (UniProt O75554)
inactive: [1] -0.032 | [2] 0.059 | [3] 0.004 | [4] -0.015 | [5] -0.022 | [6] 0.01 | [7] 0.018 | [8] -0.044 | [9] -0.043 | [10] 0.14 | [11] 0.001 | [12] -0.006 | [13] 0.014 | [14] -0.023 | [15] 0.037 | [16] 0.047 | [17] 0.023 | [18] 0.06

XIAP (UniProt P98170)
inactive: [1] 0.125 | [3] 0.092 | [4] -0.09 | [5] 0.061 | [6] -0.036 | [9] -0.111 | [10] -0.046 | [11] 0.366 | [12] 0.061 | [13] -0.027 | [14] -0.288 | [15] 0.029 | [17] -0.078 | [18] 0.095

WARS1 (UniProt G3V5U1)
inactive: [1] 0.092 | [2] 0.09 | [3] -0.282 | [7] -0.299 | [9] -0.569 | [18] -0.161

WDR24 (UniProt Q96S15)
inactive: [1] -0.065 | [3] -0.126 | [4] 0.114 | [5] 0.07 | [20] -0.073 | [8] -0.167 | [10] 0.049 | [15] -0.07 | [16] -0.283 | [17] -0.096

WDR33 (UniProt Q9C0J8)
inactive: [1] -0.134 | [3] -0.087 | [4] 0.136 | [20] 0.133 | [8] -0.024 | [9] -0.017 | [11] 0.143 | [12] 0.097 | [14] 0.01 | [15] -0.014 | [16] -0.03 | [17] 0.115 | [18] -0.054

VHL (UniProt P40337)
inactive: [1] -0.122 | [4] -0.056 | [19] 0.228 | [6] 0.19 | [8] -0.061 | [13] -0.196 | [15] 0.101 | [16] -0.028

VPS8 (UniProt Q8N3P4)
inactive: [1] 0.024 | [2] -0.12 | [3] 0.016 | [4] 0.127 | [5] -0.097 | [6] 0.083 | [7] 0 | [8] -0.154 | [9] 0.073 | [10] 0.043 | [11] -0.162 | [12] -0.018 | [13] -0.107 | [14] 0.035 | [15] -0.018 | [16] -0.083 | [17] -0.078 | [18] 0.043

VCX3B (UniProt Q9H321)
inactive: [1] -0.121 | [3] 0.004 | [4] -0.015 | [19] 0.024 | [5] -0.03 | [20] -0.069 | [6] -0.057 | [9] -0.026 | [10] -0.052 | [11] -0.015 | [12] 0.039 | [13] 0.035 | [14] -0.112 | [15] -0.071 | [17] -0.07 | [18] 0.064

WASHC5 (UniProt Q12768)
inactive: [1] -0.023 | [2] -0.133 | [3] -0.068 | [4] 0.053 | [5] -0.002 | [6] 0.032 | [7] 0.073 | [8] -0.093 | [9] -0.052 | [10] 0.044 | [11] -0.046 | [12] -0.001 | [13] -0.112 | [14] -0.004 | [15] 0.005 | [16] 0.086 | [17] -0.001 | [18] 0.027

WDR81 (UniProt Q562E7)
inactive: [1] 0.338 | [2] 0.058 | [3] 0.028 | [20] 0.134 | [7] -0.063 | [8] -0.177 | [9] -0.175 | [11] 0.012 | [12] -0.047 | [14] -0.064 | [16] 0.026

WDR62 isoform 4 (UniProt O43379)
inactive: [1] 0.064 | [2] -0.137 | [3] 0.07 | [4] -0.064 | [6] -0.016 | [7] -0.057 | [8] -0.02 | [9] -0.193 | [10] 0.016 | [11] -0.149 | [12] -0.041 | [13] -0.107 | [14] -0.083 | [15] 0.009 | [16] 0.032 | [17] 0.002 | [18] 0.024
active: [5] -0.204

WDR41 (UniProt Q9HAD4)
inactive: [1] 0.01 | [2] -0.093 | [3] -0.064 | [4] -0.064 | [5] -0.035 | [6] -0.02 | [7] -0.042 | [8] -0.172 | [9] -0.139 | [10] 0.169 | [11] 0 | [12] -0.076 | [13] -0.082 | [14] -0.017 | [15] 0.012 | [16] -0.003 | [17] 0.023 | [18] 0.071

Reference: the supplement of paper PMC10849652
